Measurements from publication PMC8154061.
These are yes or no findings as the source states them, for the method shown. Binding seen in cells or lysates may run through a third protein. Some binding calls cover weakened binding; strength is not graded here. Tags and fused reporters may be left off the sequences shown.

Columns and labels:
[1] = molecular target: T1, SLAH3-YFP (Arabidopsis thaliana) (UniProt Q9FLV9); test: FRET or BRET; sensitized emission; SnRK1.1/mSnRK1.1-CFP donor, SLAH3-YFP acceptor, coexpressed in planta
T1 sequence: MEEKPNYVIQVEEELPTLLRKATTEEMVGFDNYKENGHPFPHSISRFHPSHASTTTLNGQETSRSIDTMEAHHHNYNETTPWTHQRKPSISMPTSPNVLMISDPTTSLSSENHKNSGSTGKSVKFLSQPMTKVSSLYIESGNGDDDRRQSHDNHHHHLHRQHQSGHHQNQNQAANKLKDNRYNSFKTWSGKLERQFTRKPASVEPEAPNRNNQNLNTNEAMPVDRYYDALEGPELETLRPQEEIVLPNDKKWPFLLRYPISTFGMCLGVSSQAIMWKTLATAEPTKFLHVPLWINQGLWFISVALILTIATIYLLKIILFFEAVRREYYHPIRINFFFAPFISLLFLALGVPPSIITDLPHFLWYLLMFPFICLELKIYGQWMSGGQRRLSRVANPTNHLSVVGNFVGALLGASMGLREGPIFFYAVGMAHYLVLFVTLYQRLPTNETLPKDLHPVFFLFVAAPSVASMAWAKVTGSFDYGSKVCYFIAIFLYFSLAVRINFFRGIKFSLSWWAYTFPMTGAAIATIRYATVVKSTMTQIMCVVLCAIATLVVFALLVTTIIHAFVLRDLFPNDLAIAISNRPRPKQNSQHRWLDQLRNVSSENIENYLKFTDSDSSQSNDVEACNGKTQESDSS

[2] = molecular target: T1, SLAH3-YFP (Arabidopsis thaliana); test: FRET or BRET; acceptor photobleaching; SnRK1.1/mSnRK1.1-CFP donor, SLAH3-YFP acceptor, coexpressed in planta
[3] = molecular target: T2, full length SLAH3, BiFC fusion (Arabidopsis thaliana) (UniProt Q9FLV9); test: split reporter; BiFC (split YFP) in transiently transformed leaf epidermal cells and isolated mesophyll protoplasts of N. benthamiana
T2 sequence: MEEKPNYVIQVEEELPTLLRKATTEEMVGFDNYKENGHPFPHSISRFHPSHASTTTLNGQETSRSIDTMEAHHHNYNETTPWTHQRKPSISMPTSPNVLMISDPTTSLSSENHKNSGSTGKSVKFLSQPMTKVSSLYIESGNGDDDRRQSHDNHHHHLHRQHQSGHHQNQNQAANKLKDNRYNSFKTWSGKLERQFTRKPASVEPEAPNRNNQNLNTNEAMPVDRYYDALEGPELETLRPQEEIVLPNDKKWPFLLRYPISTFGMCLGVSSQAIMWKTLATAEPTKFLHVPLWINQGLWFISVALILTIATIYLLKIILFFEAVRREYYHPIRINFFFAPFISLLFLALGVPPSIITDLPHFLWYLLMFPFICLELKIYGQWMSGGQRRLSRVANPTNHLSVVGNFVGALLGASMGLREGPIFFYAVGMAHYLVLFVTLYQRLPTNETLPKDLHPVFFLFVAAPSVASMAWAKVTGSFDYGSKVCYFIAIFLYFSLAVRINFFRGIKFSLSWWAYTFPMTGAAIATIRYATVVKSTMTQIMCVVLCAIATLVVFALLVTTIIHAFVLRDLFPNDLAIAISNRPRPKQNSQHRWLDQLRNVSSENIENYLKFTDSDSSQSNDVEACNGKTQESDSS

[4] = molecular target: T3, full-length SLAH3, mbSUS fusion (Arabidopsis thaliana) (UniProt Q9FLV9); test: mating-based split ubiquitin system (mbSUS); diploid yeast (THY.AP4 x THY.AP5) grown on SD minimal medium with 0, 150, 300 or 500 uM Met; SLAH3 in pMetYCgate, SnRK1.1 in pX-NubWTgate
T3 sequence: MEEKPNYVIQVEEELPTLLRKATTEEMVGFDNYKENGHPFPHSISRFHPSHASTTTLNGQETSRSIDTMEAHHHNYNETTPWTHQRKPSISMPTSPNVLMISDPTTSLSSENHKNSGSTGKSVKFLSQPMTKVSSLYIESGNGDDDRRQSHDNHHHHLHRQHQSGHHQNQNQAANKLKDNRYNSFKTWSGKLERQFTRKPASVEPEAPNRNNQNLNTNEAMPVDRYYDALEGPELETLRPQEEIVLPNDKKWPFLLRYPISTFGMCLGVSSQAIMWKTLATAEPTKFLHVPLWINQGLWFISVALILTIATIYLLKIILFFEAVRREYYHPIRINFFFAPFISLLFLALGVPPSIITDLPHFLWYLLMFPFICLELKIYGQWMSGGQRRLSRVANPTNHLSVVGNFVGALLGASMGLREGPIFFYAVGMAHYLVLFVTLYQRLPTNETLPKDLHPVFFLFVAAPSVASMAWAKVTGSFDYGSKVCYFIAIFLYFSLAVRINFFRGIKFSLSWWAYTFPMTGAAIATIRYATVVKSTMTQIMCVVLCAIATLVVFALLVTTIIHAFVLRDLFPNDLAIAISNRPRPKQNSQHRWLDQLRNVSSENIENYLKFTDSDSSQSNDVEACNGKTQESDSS

B1: SnRK1.1-CFP (protein, UniProt Q38997 1-512)
chain: MDGSGTGSRSGVESILPNYKLGRTLGIGSFGRVKIAEHALTGHKVAIKILNRRKIKNMEMEEKVRREIKILRLFMHPHIIRLYEVIETPTDIYLVMEYVNSGELFDYIVEKGRLQEDEARNFFQQIISGVEYCHRNMVVHRDLKPENLLLDSKCNVKIADFGLSNIMRDGHFLKTSCGSPNYAAPEVISGKLYAGPEVDVWSCGVILYALLCGTLPFDDENIPNLFKKIKGGIYTLPSHLSPGARDLIPRMLVVDPMKRVTIPEIRQHPWFQAHLPRYLAVPPPDTVQQAKKIDEEILQEVINMGFDRNHLIESLRNRTQNDGTVTYYLILDNRFRASSGYLGAEFQETMEGTPRMHPAESVASPVSHRLPGLMEYQGVGLRSQYPVERKWALGLQSRAHPREIMTEVLKALQDLNVCWKKIGHYNMKCRWVPNSSADGMLSNSMHDNNYFGDESSIIENEAAVKSPNVVKFEIQLYKTRDDKYLLDLQRVQGPQFLFLDLCAAFLAQLRVL
- binding [1]: binds
- binding [2]: binds

B2: mSnRK1.1-CFP (protein, UniProt Q38997 1-512)
chain: MDGSGTGSRSGVESILPNYKLGRTLGIGSFGRVKIAEHALTGHKVAIMILNRRKIKNMEMEEKVRREIKILRLFMHPHIIRLYEVIETPTDIYLVMEYVNSGELFDYIVEKGRLQEDEARNFFQQIISGVEYCHRNMVVHRDLKPENLLLDSKCNVKIADFGLSNIMRDGHFLKTSCGSPNYAAPEVISGKLYAGPEVDVWSCGVILYALLCGTLPFDDENIPNLFKKIKGGIYTLPSHLSPGARDLIPRMLVVDPMKRVTIPEIRQHPWFQAHLPRYLAVPPPDTVQQAKKIDEEILQEVINMGFDRNHLIESLRNRTQNDGTVTYYLILDNRFRASSGYLGAEFQETMEGTPRMHPAESVASPVSHRLPGLMEYQGVGLRSQYPVERKWALGLQSRAHPREIMTEVLKALQDLNVCWKKIGHYNMKCRWVPNSSADGMLSNSMHDNNYFGDESSIIENEAAVKSPNVVKFEIQLYKTRDDKYLLDLQRVQGPQFLFLDLCAAFLAQLRVL
- binding [1]: binds
- binding [2]: binds

B3: SnRK1.1, BiFC fusion (protein, UniProt Q38997 1-512)
chain: MDGSGTGSRSGVESILPNYKLGRTLGIGSFGRVKIAEHALTGHKVAIKILNRRKIKNMEMEEKVRREIKILRLFMHPHIIRLYEVIETPTDIYLVMEYVNSGELFDYIVEKGRLQEDEARNFFQQIISGVEYCHRNMVVHRDLKPENLLLDSKCNVKIADFGLSNIMRDGHFLKTSCGSPNYAAPEVISGKLYAGPEVDVWSCGVILYALLCGTLPFDDENIPNLFKKIKGGIYTLPSHLSPGARDLIPRMLVVDPMKRVTIPEIRQHPWFQAHLPRYLAVPPPDTVQQAKKIDEEILQEVINMGFDRNHLIESLRNRTQNDGTVTYYLILDNRFRASSGYLGAEFQETMEGTPRMHPAESVASPVSHRLPGLMEYQGVGLRSQYPVERKWALGLQSRAHPREIMTEVLKALQDLNVCWKKIGHYNMKCRWVPNSSADGMLSNSMHDNNYFGDESSIIENEAAVKSPNVVKFEIQLYKTRDDKYLLDLQRVQGPQFLFLDLCAAFLAQLRVL
- binding [3]: binds

B4: kinase-dead variant (K48M) of SnRK1.1 (mSnRK1.1), BiFC fusion (protein, UniProt Q38997 1-512)
chain: MDGSGTGSRSGVESILPNYKLGRTLGIGSFGRVKIAEHALTGHKVAIMILNRRKIKNMEMEEKVRREIKILRLFMHPHIIRLYEVIETPTDIYLVMEYVNSGELFDYIVEKGRLQEDEARNFFQQIISGVEYCHRNMVVHRDLKPENLLLDSKCNVKIADFGLSNIMRDGHFLKTSCGSPNYAAPEVISGKLYAGPEVDVWSCGVILYALLCGTLPFDDENIPNLFKKIKGGIYTLPSHLSPGARDLIPRMLVVDPMKRVTIPEIRQHPWFQAHLPRYLAVPPPDTVQQAKKIDEEILQEVINMGFDRNHLIESLRNRTQNDGTVTYYLILDNRFRASSGYLGAEFQETMEGTPRMHPAESVASPVSHRLPGLMEYQGVGLRSQYPVERKWALGLQSRAHPREIMTEVLKALQDLNVCWKKIGHYNMKCRWVPNSSADGMLSNSMHDNNYFGDESSIIENEAAVKSPNVVKFEIQLYKTRDDKYLLDLQRVQGPQFLFLDLCAAFLAQLRVL
- binding [3]: binds

B5: SnRK1.1, mbSUS fusion (protein, UniProt Q38997 1-512)
chain: MDGSGTGSRSGVESILPNYKLGRTLGIGSFGRVKIAEHALTGHKVAIKILNRRKIKNMEMEEKVRREIKILRLFMHPHIIRLYEVIETPTDIYLVMEYVNSGELFDYIVEKGRLQEDEARNFFQQIISGVEYCHRNMVVHRDLKPENLLLDSKCNVKIADFGLSNIMRDGHFLKTSCGSPNYAAPEVISGKLYAGPEVDVWSCGVILYALLCGTLPFDDENIPNLFKKIKGGIYTLPSHLSPGARDLIPRMLVVDPMKRVTIPEIRQHPWFQAHLPRYLAVPPPDTVQQAKKIDEEILQEVINMGFDRNHLIESLRNRTQNDGTVTYYLILDNRFRASSGYLGAEFQETMEGTPRMHPAESVASPVSHRLPGLMEYQGVGLRSQYPVERKWALGLQSRAHPREIMTEVLKALQDLNVCWKKIGHYNMKCRWVPNSSADGMLSNSMHDNNYFGDESSIIENEAAVKSPNVVKFEIQLYKTRDDKYLLDLQRVQGPQFLFLDLCAAFLAQLRVL
- binding [4]: binds

B6: mSnRK1.1 (K48M), mbSUS fusion (protein, UniProt Q38997 1-512)
chain: MDGSGTGSRSGVESILPNYKLGRTLGIGSFGRVKIAEHALTGHKVAIMILNRRKIKNMEMEEKVRREIKILRLFMHPHIIRLYEVIETPTDIYLVMEYVNSGELFDYIVEKGRLQEDEARNFFQQIISGVEYCHRNMVVHRDLKPENLLLDSKCNVKIADFGLSNIMRDGHFLKTSCGSPNYAAPEVISGKLYAGPEVDVWSCGVILYALLCGTLPFDDENIPNLFKKIKGGIYTLPSHLSPGARDLIPRMLVVDPMKRVTIPEIRQHPWFQAHLPRYLAVPPPDTVQQAKKIDEEILQEVINMGFDRNHLIESLRNRTQNDGTVTYYLILDNRFRASSGYLGAEFQETMEGTPRMHPAESVASPVSHRLPGLMEYQGVGLRSQYPVERKWALGLQSRAHPREIMTEVLKALQDLNVCWKKIGHYNMKCRWVPNSSADGMLSNSMHDNNYFGDESSIIENEAAVKSPNVVKFEIQLYKTRDDKYLLDLQRVQGPQFLFLDLCAAFLAQLRVL
- binding [4]: binds
